# PubChem BioAssay AID2685 (National Center for Advancing Translational Sciences (NCATS), 2010)
# The other results are listed elsewhere or left out. The main result of the screen is listed elsewhere. These columns were measured beside it and carry no call. The list favours compounds with an active or inconclusive main result. Words in brackets tell the shape of the fitted curve; partial curves, single points and poor fits give uncertain potencies.
# Experiment: qHTS Assay for Lipid Storage Modulators in Drosophila S3 Cells;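 for cell number change: cells counted by Cell Tracker Red CMTPX staining in the red channel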
# Settings: BODIPY lipid droplet fluorescence, 18-24 h; for cell number change: measured here: cell count max response, cells fed with added oleic acid
# How it was run: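 Drosophila S3 cells got compounds at several concentrations plus oleic acid (400 uM solution). Laser-scanning cytometry with 488 nm excitation read lipid droplets at 500-530 nm and cells at 575-640 nm. Percent activity was relative to 20 uM Triacsin C.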
# [1] = measured here: lipid fluorescence (Fed channel) AC50, cells fed with added oleic acid
# [2] = measured here: cell number channel AC50, cells fed with added oleic acid
SMILES,cell number change [%],AC50 [1],AC50 [2]
CC1CCCC(C)N1c1nnc(NC(=O)Cn2c(=O)oc3ccccc32)s1 (stereo not drawn),24.2,"0.58 µM [falling, full curve, poor fit]",
Cc1ccc(C(CC(=O)O)C2CCOC(C)(C)C2)cc1 (stereo not drawn),6.67,"0.58 µM [falling, full curve, poor fit]",
Cc1c(C(=O)Nc2ccc(F)cc2)sc2ncn(CC(=O)N3CCCCC3)c(=O)c12,20.2,,
O=C(NNS(=O)(=O)c1ccccc1)C(O)(c1ccccc1)c1ccccc1,34.6,"0.00461 µM [falling, full curve, poor fit]","29.1 µM [rising, single point]"
COc1ccc(CCNC(=O)C2CCCN(S(=O)(=O)c3ccc(F)cc3)C2)cc1 (stereo not drawn),28,"29.1 µM [rising, single point]",
OCC[C@H]1C[C@@H](O)[C@H](O)[C@@]2(OCCc3ccccc32)O1,18.3,"8.2 µM [rising, partial curve, poor fit]",
Cc1ccc(C(=O)Nc2cccc(C(F)(F)F)c2)cc1Nc1cncnc1,18.8,,
O=c1c2cc(F)ccc2[nH]c(=S)n1CCCN1CCOCC1,25.5,"6.51 µM [rising, single point]",
Cc1oc(-c2ccccc2F)nc1CS(=O)CC(=O)NC1CCCCC1 (stereo not drawn),-5.48,,
CCOC(=O)c1cc(-c2ccccc2)sc1NC(=O)C(C)Sc1nnnn1C (stereo not drawn),-15.4,"0.651 µM [falling, single point]",
Cc1c(Cl)cccc1NC(=O)CSc1nnc(C)n1-c1ccccc1,-11.4,,
Cc1cccc(NC(=O)CSc2ccc(-c3ccc4c(c3)OCO4)nn2)c1C,13.5,"2.06 µM [rising, full curve]",
COc1cc(CC(=O)N2CCc3ccccc32)cc(OC)c1OC,-14.3,,
CCc1cccc(C)c1NC(=S)NCC1CCN(c2ccc(OC)cc2)C1 (stereo not drawn),-34.7,,"0.517 µM [falling, full curve, poor fit]"
N/C(=N\OC(=O)COc1cc(Cl)c(Cl)cc1Cl)c1ccncc1,24.2,,
CC1Cc2ccccc2N1Cc1cc(=O)c(OCC(=O)NCCc2ccccc2)co1 (stereo not drawn),,"29.1 µM [falling, single point]","0.184 µM [falling, full curve, poor fit]"
OCc1cn(-c2ccccc2)nc1-c1ccc(Br)cc1,-19.9,"16.4 µM [falling, single point]",
COc1cccc(C2=CC(c3cccs3)n3nnnc3N2)c1 (stereo not drawn),35.4,,"1.84 µM [rising, full curve, poor fit]"
COc1ccc(/C=C/c2cc[n+](C(=O)Cc3ccccc3)cc2)cc1,52.7,,"6.51 µM [falling, single point]"
Cc1nc(SCc2c(F)cccc2Cl)c2c(=O)n(C)c(=O)n(C)c2n1,15.9,,"1.03 µM [rising, full curve, poor fit]"

SMILES,cell number change [%],AC50 [1],AC50 [2]
COc1ccc(Cl)cc1NC(=O)CN(C)C(=O)c1cc(=O)c2ccccc2o1,-1.39,"1.84 µM [rising, single point]",
CCC(=O)c1ccc(N2CCN(C(=O)c3ccc(F)cc3)CC2)c(F)c1,-1.91,"3.66 µM [falling, partial curve, poor fit]","6.51 µM [falling, single point]"
CCOC(=O)C(=O)Nc1ccc(OCc2ccccc2)cc1,7.76,,
N#C/C(=C/c1cn(-c2ccccc2)nc1-c1cccc(OCc2ccc(F)cc2)c1)C(=O)NCCCn1ccnc1,-16.1,"29.1 µM [falling, single point]",
Cc1cccc(C(=O)N2CCCC(N3CCN(c4cccc(Cl)c4)CC3)C2)n1 (stereo not drawn),17.9,,
COc1ccc(N2CCN(C(=O)CSc3ncn[nH]3)CC2)cc1,-24.5,"6.51 µM [rising, single point]",
Cc1ccc(O)c(NC(=O)c2ccccc2-c2ccccc2C(=O)O)c1,-11.1,"0.116 µM [falling, partial curve, poor fit]",
O=C(Nc1ccccc1)Nc1nnc(SCc2ccc(Cl)cc2)s1,-30.9,"6.51 µM [rising, single point]","29.1 µM [falling, single point]"
Cc1ccc(S(=O)(=O)N2CCOCC2)cc1C(=O)Nc1ccccn1,,"0.58 µM [falling, single point]",
CCC(=O)Nc1cc(OC)cc(OC)c1,8.36,"13 µM [falling, partial curve, poor fit]",
CCOC(=O)C(NCCc1ccccc1F)(NC(=O)CC)C(F)(F)F (stereo not drawn),-7.96,"32.6 µM [falling, single point]",
c1cncc(CSc2nnc3ccc(-c4ccco4)nn23)c1,-49,"0.651 µM [falling, partial curve, poor fit]","1.84 µM [falling, partial curve, poor fit]"
COc1cc(CN2CCN(C(=O)c3cccc4ccccc34)CC2)cc(OC)c1O,7.62,"29.1 µM [falling, single point]",
Nc1nc(N)c2cc(Sc3ccc4ccccc4c3)ccc2n1,-65,,"9.2 µM [falling, partial curve]"
COc1ccc2oc(=Nc3ccc(C(=O)O)cc3)c(C(=O)NCc3ccco3)cc2c1,-18.6,,"0.00651 µM [falling, full curve, poor fit]"
CCOC(=O)C1(Cc2cccc(OC)c2)CCCN(S(=O)(=O)N(C)C)C1 (stereo not drawn),-13.2,,
Cc1c(C(=O)N2CCN(C(=O)c3ccco3)CC2)oc2c(Cl)cccc12,8.99,"0.366 µM [rising, full curve, poor fit]","2.31 µM [rising, partial curve]"
O=C(Nc1cccnc1)c1cccc(S(=O)(=O)N2CCCCC2)c1,-2.29,"0.00651 µM [rising, full curve, poor fit]",
O=C(NCCCn1ccnc1)/C(=C\c1cccnc1)NC(=O)c1cccc(Br)c1,16,"11.6 µM [rising, partial curve, poor fit]",

# Three entries picked at random from the list so far:
SMILES,cell number change [%],AC50 [1],AC50 [2]
Nc1nc(N)c2cc(Sc3ccc4ccccc4c3)ccc2n1,-65,,"9.2 µM [falling, partial curve]"
COc1ccc2oc(=Nc3ccc(C(=O)O)cc3)c(C(=O)NCc3ccco3)cc2c1,-18.6,,"0.00651 µM [falling, full curve, poor fit]"
CCC(=O)Nc1cc(OC)cc(OC)c1,8.36,"13 µM [falling, partial curve, poor fit]",
